PubChem BioAssay AID652272 – Drosophila RNAi Screening Center | 2013

- Screen: 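Genes whose knock-down decreases or increases Hedgehog reporter output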 (primary screen)
- Cells: Drosophila clone 8 (Cl8) cells
- Knock-down reagent: long dsRNA against Drosophila genes
- Read-out: 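Plate reader light from a firefly reporter under a ptc promoter fragment that responds to Hedgehog, with Renilla light as transfection reference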
- Reading the numbers: firefly Hh reporter signal: higher = more ptc reporter light; Renilla reference signal: higher = more Renilla control light
- Rule for the call: 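Hit when the z-score averaged over two replicates is under -2 or over +3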
- Calls: active = hit: reporter lowered or raised; inactive = not a hit
The screen tested about 21,000 reagents; below is a random part of those that have a named target and a result. In the full data, 503 (2.4%) are marked active. 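Raw plate light values, not normalised; calls rest on replicate z-scores that were not deposited; hits include reporter decreases as well as increases.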 Reagent sequences are not shown. Not stated in the record: the amount of reagent, the time to read-out.

predicted target | dsRNA | firefly Hh reporter signal, replicate 1 | firefly Hh reporter signal, replicate 2 | firefly Hh reporter signal, replicate 3 | Renilla reference signal, replicate 1 | Renilla reference signal, replicate 2 | outcome
Irp-1A (Iron regulatory protein 1A) | DRSC16719 | 1.62e5 | 8.89e5 | 1.31e5 | 6552 | 50021 | inactive
sau (sauron) | DRSC00694 | 1.11e5 | 80677 | – | 4615 | 3812 | inactive
CG30394 | DRSC04074 | 84119 | 54315 | – | 2694 | 5305 | inactive
CG30394 | DRSC04260 | 62804 | 45845 | – | 1696 | 4234 | inactive
Ir94f (Ionotropic receptor 94f) | DRSC13621 | 43699 | 2.04e5 | – | 11104 | 4819 | inactive
CG6800 | DRSC16119 | 8.21e5 | 1.58e5 | – | 37723 | 3244 | inactive
CG14567 | DRSC11728 | 1.15e5 | 1.18e5 | – | 3799 | 6423 | inactive
alpha-Est6 (alpha-Esterase-6) | DRSC12618 | 1.04e5 | 97385 | – | 4342 | 4092 | inactive
homer | DRSC03547 | 63609 | 54627 | – | 2560 | 2128 | inactive
CG5255 | DRSC15754 | 70009 | 84569 | – | 1811 | 6569 | inactive
CSN3 (COP9 signalosome subunit 3) | DRSC11859 | 98569 | 97072 | – | 3396 | 2580 | inactive
CG15153 | DRSC02454 | 92759 | 63803 | – | 2357 | 5080 | inactive
CG2147 | DRSC18211 | 93837 | 64352 | – | 2210 | 1634 | inactive
dysf (dysfusion) | DRSC14529 | 6.22e5 | 1.42e5 | – | 29561 | 4118 | inactive
dysf (dysfusion) | DRSC14895 | 5.55e5 | 1.17e5 | – | 26322 | 3479 | inactive
dysf (dysfusion) | DRSC14896 | 5.23e5 | 1.25e5 | – | 26832 | 3994 | inactive
dysf (dysfusion) | DRSC14897 | 2.15e5 | 44716 | – | 15612 | 1961 | active
cato (cousin of atonal) | DRSC07589 | 70177 | 44196 | – | 1600 | 3469 | inactive
Mipp2 (Multiple inositol polyphosphate phosphatase 2) | DRSC18682 | 79650 | 71821 | – | 1831 | 1744 | inactive
snu (snustorr) | DRSC16589 | 1.11e5 | 1.19e5 | – | 2173 | 3098 | inactive
eEF2 (eukaryotic translation elongation factor 2) | DRSC03737 | 60967 | 53312 | – | 2018 | 5153 | inactive
Su(dx) (Suppressor of deltex) | DRSC00791 | 1.21e5 | 89313 | – | 4907 | 2936 | inactive
CG17249 | DRSC08517 | 1.19e5 | 72404 | – | 4996 | 2964 | inactive

An excerpt from above, limited to “firefly Hh reporter signal, replicate 1”:
alpha-Est6 (alpha-Esterase-6) [DRSC12618]	1.04e5
homer [DRSC03547]	63609
